# Values from PubChem BioAssay AID743454 (Peter MacCallum Cancer Centre, 2014)
# Screen: 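Genes whose loss kills vorinostat-resistant colon cancer cells under vorinostat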 (primary screen)
# System: human HCT116-VR colon cancer cells, selected for vorinostat resistance
# Reagent: siRNA pool against human genes, 40 nM siRNA pool
# Timing: vorinostat for 24 h, read-out about 72 h after transfection
# Treatment: vorinostat at 2.5 µM final
# Read-out: 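Cell viability by CellTiter-Fluor and caspase 3/7 activity by luminescence, each scaled to mock wells per plate, duplicates averaged, then robust z-scored over all plates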
# Scale: viability robust z-score: higher = more viable cells than screen typical; caspase robust z-score: higher = more caspase 3/7 activity than screen typical
# Rule for the call: 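Hits are knock-downs in viability class RV1/RV2 or caspase class CA1/CA2, excluding ones that killed cells in the no-drug cell-count arm; hits then retested with single siRNAs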
# The whole screen tested about 18,000 reagents; below is a random part of them. Over the whole deposit, 450 (2.5%) are marked active. 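Single biological run; no consistent viability z cut-off exists, so the class columns, not z-scores, define the calls.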 Entries without a mark were called inactive.
gene,PubChem SID,viability hit class,caspase hit class,viability robust z-score,caspase robust z-score
PKN2 (protein kinase N2),SID152156352,no change,no change,-2.08,0.42
VSTM4 (V-set and transmembrane domain containing 4),SID135623095,no change,no change,0.57,1.7
COA5 (cytochrome c oxidase assembly factor 5),SID135625374,no change,no change,-0.62,3.74
LRPAP1 (LDL receptor related protein associated protein 1),SID152155833,no change,no change,1.31,-0.24
UTP6 (UTP6 small subunit processome component),SID135621967,no change,no change,-2.52,-0.55
C10orf90 (chromosome 10 open reading frame 90),SID152153528,no change,no change,0.54,1.05
SEMG2 (semenogelin 2),SID134323479,no change,no change,0.15,2.49
ACOT9 (acyl-CoA thioesterase 9),SID135621876,no change,no change,0.04,-1.02
FRMD4A (FERM domain containing 4A),SID152155715,no change,no change,0.32,-1.43
ADARB1 (adenosine deaminase RNA specific B1),SID135621734,no change,no change,0.46,-0.42
"TLE1 (TLE family member 1, transcriptional corepressor)",SID135622960,no change,no change,0.91,1.86
KLHDC7A (kelch domain containing 7A),SID152156252,no change,no change,0.35,-0.54
POMP (proteasome maturation protein),SID135623221,no change,no change,-3.84,2.73
MTNAP1 (mitochondrial nucleoid associated protein 1),SID135623245,no change,no change,1.05,1.15
FOXN4 (forkhead box N4),SID134326743,no change,no change,0.1,1.58
NEK4 (NIMA related kinase 4),SID152155431,no change,no change,-0.37,-0.98
C1orf53 (chromosome 1 open reading frame 53),SID152155318,no change,no change,-1.28,1.35
KCNJ16 (potassium inwardly rectifying channel subfamily J member 16),SID134311664,no change,no change,-0.75,-0.88
"PARS2 (prolyl-tRNA synthetase 2, mitochondrial)",SID134320945,no change,no change,0.74,1.06
BCL10 (BCL10 immune signaling adaptor),SID152151674,no change,no change,0.05,0.75
MT1H (metallothionein 1H),SID135622380,no change,no change,0.95,-0.86
CAPNS2 (calpain small subunit 2),SID134318945,no change,no change,-1.06,0.12
RHBDL3 (rhomboid like 3),SID152155810,no change,no change,-0.3,-0.61
OR3A3 (olfactory receptor family 3 subfamily A member 3),SID134313478,no change,no change,0.3,0.56
ZNF804B (zinc finger protein 804B),SID152150616,no change,no change,-0.38,-0.51
NR5A2 (nuclear receptor subfamily 5 group A member 2),SID134309881,no change,no change,-1.27,0.04
CLEC4C (C-type lectin domain family 4 member C),SID152151334,no change,no change,0.38,0.1
KRT6C (keratin 6C),SID152155787,no change,no change,-0.34,-0.52
ZNF526 (zinc finger protein 526),SID134325816,no change,no change,0.54,1.09
SESN3 (sestrin 3),SID135623499,no change,no change,1.25,-0.12
SLC71A2,SID152148744,no change,no change,-0.77,-0.34
DIO3 (iodothyronine deiodinase 3),SID152147648,no change,no change,0.45,1.34
BAZ1A (bromodomain adjacent to zinc finger domain 1A),SID134312067,no change,no change,0.76,0.96
ENPP6 (ectonucleotide pyrophosphatase/phosphodiesterase 6),SID152148070,no change,no change,-0.16,0.05
GLB1L (galactosidase beta 1 like),SID134320380,no change,no change,-0.5,-0.42
CDC50B (cell division cycle 50 P4-ATPase accessory subunit B),SID152149674,no change,no change,1.2,-0.18
LRRC26 (leucine rich repeat containing 26),SID152154014,no change,no change,-0.56,0.12
HSD17B8 (hydroxysteroid 17-beta dehydrogenase 8),SID135621515,no change,no change,-0.84,-0.3
ATP8B2 (ATPase phospholipid transporting 8B2),SID135624295,no change,no change,-1.95,2.24

As entered above:
Value for FOXN4 (forkhead box N4) [SID134326743] in “viability robust z-score”: 0.1
For “viability hit class”, COA5 (cytochrome c oxidase assembly factor 5) [SID135625374] is entered as no change
For “viability hit class”, CLEC4C (C-type lectin domain family 4 member C) [SID152151334] shows no change
Result for C1orf53 (chromosome 1 open reading frame 53) [SID152155318] under “caspase hit class”: no change
Result of FRMD4A (FERM domain containing 4A) [SID152155715] under “viability hit class”: no change
